# Percent effect of library compounds

Each number is a percent effect as filed. The record does not define 0% and 100%; most values in the screen are far below 50% and negative numbers occur (in some assays of this library far below -100). Compounds were drawn at random from those tested, without regard to their results. Two or more numbers in one place are separate tests of the same structure; such repeats can differ widely.

Mtb cholesterol medium: 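Phenotypic screen: M. tuberculosis growth, cholesterol and DPPC medium, 4 days; the read-out is not stated. Concentration: 50 µM. The record gives no direction; compounds that gave an IC50 in retests scored well above the rest, so higher reads as more growth inhibition. Of about 69,000 compounds tested this way, about 370 (0.54%) reached 50% or more in at least one test.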
Mtb glucose medium: 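Whole-cell growth test on Mycobacterium tuberculosis, read after 3 days in glucose-containing 7H9 medium; the read-out is not stated. Tested at 50 µM. The record gives no direction; compounds that gave an IC50 in retests scored well above the rest, so higher reads as more growth inhibition. Of about 69,000 compounds tested this way, about 760 (1.1%) reached 50% or more in at least one test.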

SMILES | Mtb cholesterol medium | Mtb glucose medium
CCN1C(=O)C2(CCCCC2)NC12CCSCC2 | 8.819 | 14.78
CCc1nc(CN2CCCN(C(=O)c3cnc[nH]3)CC2)cs1 | 5.177 | 14.21
O=C(Cc1cccnc1)N1CCC(c2nnc(-c3ccccn3)o2)CC1 | -18.21 & -5.361 | -29.56
COc1ccc(Cl)cc1NC(=O)N1CCc2nc(NC(C)=O)sc2C1 | -14.92 | -2.42
CCCC(=O)N1CCC(Nc2ncc(Br)cn2)CC1 | 22.22 | 17.92
Cc1csc(N2CCCN(C(=O)Cc3cccs3)CC2)n1 | -29.93 | -13.21
CC1CCN(CC(=O)NC2CCN(C(C)c3ccccc3)CC2)CC1.Cl (centres undefined) | 0.2377 & -16.77 | 6.256
CCOc1ccc(Cl)c(C(=O)NCCC(=O)Nc2ccccn2)n1 | -1.215 | 17.91
Nc1nnc(CCCNC(=O)c2ccc(C3CCCNC3)cc2)s1 (centres undefined) | -2.973 | -0.07308
CC(C)Cc1cn(C2CCN(C(C)CCn3cccn3)CC2)nn1 (centres undefined) | 23.91 | 18.88 & 1.868
Cn1ncc2c1CCCC2NCc1cnc(-c2ccccc2)nc1 (centres undefined) | -3.953 | 19.94
CN1CCOCC2(CCCN(C(=O)c3ccc(-n4cccc4)cc3)C2)C1.O=C(O)C(F)(F)F (centres undefined) | -10.95 | -12.89
Cc1ccc(N2CCCC(NCc3cccc4c3OCCO4)C2)nn1 (centres undefined) | -27.8 | 9.017
[H][C@@]12CS(=O)(=O)C[C@]1([H])N(CCCc1ccccc1)CCN2CC=C(C)C | 1.764 | 6.25
Cc1ccccc1-c1cncc(C2CCN(Cc3cnn(C)c3)CC2)n1 | -0.5177 | 11.51
O=C(C1CN(Cc2ccsc2)Cc2ccnn2C1)N1CCCC1.O=C(O)C(F)(F)F.O=C(O)C(F)(F)F (centres undefined) | 11.36 | 6.169 & 3.808
COc1cccc2cc(CNC(=O)N3CCOC(C)(C)C3)oc12 | 10.19 | -28.31
NCc1ccc(N2CCN(c3ncccn3)CC2)c(F)c1 | -26.06 | -15.49
CCO[C@H]1CO[C@@]2(CCCN(Cc3nc(C)cs3)C2)C1.O=C(O)C(F)(F)F | 18.48 | 27.39
CC(C)CCS(=O)(=O)N1CCCC(c2nncn2C(C)C)C1 (centres undefined) | 4.41 | 14.86
Cc1ccc(C(=O)Nc2ccc(N(C)C)cn2)n1C | 4.49 | 17.07
CCc1nc(CN2CCCN(C(=O)CCCOC)CC2)cs1 | -3.64 | 5.688
O=C1c2cnc(N3CCOCC3)nc2CN1c1ccc2c(c1)OCO2 | -6.134 | -3.898
COCCN(Cc1ccccn1)C(=O)CC1OCCc2ccccc21 (centres undefined) | -3.586 | 2.279
Cn1cc(C2CCCN2Cc2csc(C(C)(C)C)n2)cn1 (centres undefined) | -3.769 | 25.79
CNC(=O)c1ccc(CN2CCN(C3=NCC(C)(C)S3)CC2)cc1 | -19.67 | -13.41
CSCC[C@H](N)C(=O)N1CC(Oc2ccccc2C)C1 | -12.64 | -31.33
CSc1cccc(CNC(=O)[C@H]2CNC[C@H](C(=O)N3CCOCC3)C2)c1 | 13.45 | -7.759
O=C(O)C(F)(F)F.O=C(O)C(F)(F)F.c1cc(CN2CCC3(CC2)CC(N2CCCC2)CO3)co1 (centres undefined) | 2.631 | -3.008
Cn1cc(-c2ncnc3c2CCN(C(=O)N2CCOCC2)CC3)cn1 | 12.01 | 19.5
O=C(CC1OCCc2ccsc21)NCC1CC1 (centres undefined) | 3.665 | 5.126
COc1ccc2c(ccn2CCC(=O)Nc2n[nH]c(C(C)C)n2)c1 | 33.91 | 24.33
CN(C(=O)CC1=CCCCC1)C1CCCN(CCc2ccccc2)C1 (centres undefined) | 17.82 | 1.74 & 11.3
COc1cc(N2CCC3(CC2)CN(S(C)(=O)=O)c2ccccc23)ncn1 | 1.163 | 15.12
CN(C)S(=O)(=O)c1ccc(CN2CCC(c3ccccc3)C2)o1 (centres undefined) | -10.29 | 6.935 & 13.68
CC(C)C1CN(C(=O)Nc2cnn(CC(F)F)c2)CCS1 (centres undefined) | -11.71 | 29.95 & -1.641
CCOC(C)C(=O)NCc1ccc(N(C)C)cc1 (centres undefined) | 3.042 | 15.88
CCc1ccc(C(=O)Nc2ccc3c(c2)N(C)CCN(C)C3)o1 | 13.06 & 3.022 | 20.75
Clc1cc(N2CCN3CCCCC3C2)nc2[nH]ccc12 (centres undefined) | 14.17 | 35.01
COc1cc(CNC2CCc3nc(C)nn3C2)cc2c1OCCO2 (centres undefined) | -5.315 | -7.564
Cn1ccnc1CCNC(=O)NCCC1CCCCO1 (centres undefined) | 3.288 | 28.31
Cc1ccc(S(=O)(=O)N2CCC(c3n[nH]cc3C)C2)cc1 (centres undefined) | -3.304 | -1.537
O=S(=O)(C1CC1)N1CCc2ncnc(N3CCOCC3)c2CC1 | -9.731 | -0.8901
CC(O)(CNC(=O)NCCc1ccc2c(c1)CCO2)c1ccsc1 (centres undefined) | -1.217 | 14.3
CCCc1nc(C(=O)N[C@H]2COC[C@@H]2N2CCN(C)CC2)cs1 | 11.65 | -7.846
COc1cccc(NC(=O)NC(C)(C)c2noc(C)n2)c1 | 21.09 | 5.074 & -3.638
Cn1cccc1C(=O)N1CCN(CC2CC2)c2ncccc2C1 | 9.484 | 2.332
O=c1[nH]nc2c(N3CCCCCC3)nccn12 | -18.19 | 11.59
NC(=O)CCn1cc(CNCCCc2csc(N)n2)c2ccccc21 | -3.099 & -6.631 | -9.888
Cc1cc(N[C@H]2CCCN(Cc3ccccc3)C2)n2nc(C)cc2n1 | 24.45 | 42.31
[H][C@@]12CCN(C(=O)COC)C[C@@]1([H])O[C@H](c1nnc(C3CC3)o1)C2 | 13.55 | 18.54
CCOC(=O)Cc1n[nH]c(-c2cncc(Br)c2)n1 | -11.54 | 7.19
CCc1[nH]c2c(CNC(=O)C3CNC(=O)C3)cc(C)cc2c1C (centres undefined) | 3.445 | -16.07 & -1.974
COc1ccc(C(=O)Nc2cccc(SC)c2)c(OC)n1 | -34.16 | -37.44
[H][C@@]12CCCN[C@]1([H])[C@@H](c1cccc(OC)c1)CN2C(=O)c1ccccc1 | -14.96 | -34.09
CCC(Nc1cccc(OC)c1)C(=O)NCc1ccc2c(c1)OCO2 (centres undefined) | 25.42 | -5.724
CC(Cn1cccn1)NS(=O)(=O)Cc1ccc(F)cc1 (centres undefined) | -14.79 | -18.68
COc1c(CNCCNC(=O)c2ccc(C)cc2)c(C)nn1C | 2.606 | 25.66
CC(NC(N)=O)C(=O)NCc1ccc(Br)c(F)c1 (centres undefined) | 0.6726 | 16.58 & 9.541
COc1ccc(-n2nnc(C(N)=O)n2)cc1 | 41.3 | 13.29
CN1C(=O)CC(c2ccccc2)C12CCN(c1ncccn1)CC2 (centres undefined) | -31.64 | -37.27
COCCC(=O)N(C)Cc1nc(C(F)(F)F)cs1 | -10.11 & -23.85 | -6.967
Cc1nc(CN2CCCC(NCC(=O)Nc3cccnc3)C2)no1 (centres undefined) | 5.735 | 36.07
Cc1nn(C)c(C)c1C1CCCN1Cc1nc2ccccc2o1 (centres undefined) | -11.69 | 8.836
CCOCc1ccc(CNc2nc(OC)ncc2Cl)cc1 | -7.294 | 3.716
Cc1nc(C)c(C(C)NCc2c(C)nn(CC(C)C)c2N(C)C)s1 (centres undefined) | -6.813 & -9.377 | 9.861

Data taken from ChEMBL document CHEMBL3988442, “University of Dundee, Small-Polar-MMV Screening Library” (2021).